Assay results reported in the supplement of paper PMC10338343.
± gives the standard deviation. The entries are a selection whose mix differs from that of the whole data set. Many entries were measured with a wide error.

Key:
[1] = test system: MILI (PIWIL2) piRISC loaded with piRNA #1 (26 nt); experiment: pre-steady-state target cleavage rate (min^-1); higher = faster piRNA-guided slicing of the target; conditions: guide: piRNA #1 5'p-UGAGGUAGUAGGUUGUAUAGUAUCCA; auxiliary factor: 500 nM mouse GTSF1
Outline: (§1)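 A transcribed, DNA-blocked target RNA library (0.1 nM) and 1 nM active affinity-purified piRISC bearing one synthetic guide were incubated in HEPES–potassium acetate buffer at 33 °C for 0–8 or 0–960 min, either with or without 500 nM GTSF1 partner protein. Uncleaved targets were sequenced, normalised to depth and to weakly complementary targets, and pooled over three trials, with k3 capped at 0.0001 min^-1. The pre-steady-state cleavage rate was derived with a burst-and-steady-state fit.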

[2] = test system: EfPiwi piRISC loaded with piRNA #1 (26 nt); experiment: pre-steady-state target cleavage rate (min^-1); guide: piRNA #1 5'p-UGAGGUAGUAGGUUGUAUAGUAUCCA; MIWI and MILI are mouse PIWI proteins and EfPiwi is from a freshwater sponge; tags in brackets are library labels; higher = faster piRNA-guided slicing of the target; conditions: auxiliary factor: 500 nM Ephydatia muelleri Gtsf1
Outline: as §1

Sequence | pre-steady-state target cleavage rate [1] | pre-steady-state target cleavage rate [2]
GGAGACCUUUCUAUACAAGCUACUACCUCA | 0.159 ± 0.012 | 0.00336 ± 0.0038
GGAGACGAUACUAUACAACCUACUACCUCU [g2:g24:cont:t1U] | 0.24 ± 0.019 | 1.35 ± 0.49
GGAGACCAUACUAUACAAGCUUCUACCUCA | 0.036 ± 0.007 | 0.00306 ± 0.0039
GGAGACCUUACUAUACAUCGUACUACCUCA | 0.0364 ± 0.0047 | 0.00232 ± 0.0043
GGAGACCUAUGAAAACAACCAACUACCUCA | 0.0019 ± 0.0046 | 0.000175 ± 0.016
GGAGAGGAUACUAUACAACCAUGUACCUCA | 0.000697 ± 0.0061 | 0.000786 ± 0.0038
GGAGACCUAUGAUAUGUUGCUUCUUCCUCA | 0.000113 ± 0.019 | 0.000218 ± 0.012
GGAGACCAUACUAUACAACCUACUACUCUCA | 0.331 ± 0.028 | 0.00773 ± 0.0036
GGAGACCUAACAAAACAACCUACUACCUCA | 0.00465 ± 0.0051 | 0.00903 ± 0.0046
GGAGACGAAACUAUACAACCUACUACCACA | 0.219 ± 0.031 | 0.00352 ± 0.0032
GGAGACGAUACAAUACAAGCUACUACCUCA | 0.236 ± 0.017 | 0.00185 ± 0.0026
GGAGACCUAUGAUAACAACCUCACUACCUCA | 0.00312 ± 0.0032 | 0.000191 ± 0.014
GGAGACCAUACUAUAGAACCUUCUACCUCA | 0.00154 ± 0.0043 | 0.00163 ± 0.0039
GGAGACCUAUCUAUACAACGCUACUACCUCA | 0.00135 ± 0.0054 | 0.00112 ± 0.0073
GGAGACCUAUCUAUACAUCCUAGUACCUCA | 0.0489 ± 0.012 | 0.00398 ± 0.0038
GGAGACCUAUGAUAUCAACCUUCAACCUCA | 0.000532 ± 0.0088 | 0.000202 ± 0.012
GGAGUGGAAACUAUACAAGCUACUACCUCA | 0.257 ± 0.021 | 0.00579 ± 0.0027
GGAGUGGAUACUAUACAACCUACUACAUCA | 0.0416 ± 0.0072 | 0.00707 ± 0.0031
GGAGACCAUACUAUACAACGUUCUACCUCA | 0.00208 ± 0.0043 | 0.00334 ± 0.0035
GGAGACCUAUCUAUACAACCUACUAACCUCA | 0.143 ± 0.014 | 0.00178 ± 0.0052
GGAGACGAUACUAUACAUCCUACUACCUGA | 0.237 ± 0.031 | 0.00464 ± 0.0014
GGAGACCUUACUAUACGAACCUACUACCUCA | 0.000356 ± 0.021 | 0.00215 ± 0.0036
GGAGACCUAUGAUAAGUACCUACUACCUCA | 0.000199 ± 0.013 | 0.000478 ± 0.0053
GGAGACGAUACUAUACAACCUAGUAGCUCA | 0.00097 ± 0.0088 | 0.00474 ± 0.0023
GGAGAGGAUUCUAUACAUCCUACUACCUCA | 0.263 ± 0.013 | 0.00257 ± 0.003
GGAGACCUUACUAUAGAACCAACUACCUCA | 0.00175 ± 0.0038 | 0.00116 ± 0.0053
GGAGAGGAUACUAUACAUGGUACUACCUCA | 0.00387 ± 0.0028 | 0.00195 ± 0.0028

A few values from the entries so far.
pre-steady-state target cleavage rate [1], GGAGACCUUACUAUACAUCGUACUACCUCA reads 0.0364 ± 0.0047
pre-steady-state target cleavage rate [1], GGAGAGGAUACUAUACAACCAUGUACCUCA reads 0.000697 ± 0.0061

Going on with the list:

Sequence | pre-steady-state target cleavage rate [1] | pre-steady-state target cleavage rate [2]
GGAGACCUAUGAUAACGAACCUACUACCUCA | 0.000586 ± 0.0067 | 0.000435 ± 0.015
GGAGUGGACACUAUACAACCUACUACCUCA | 0.241 ± 0.025 | 0.115 ± 0.041
GGAGACGAUUCUAUACAACCUACUACCUCA | 0.209 ± 0.013 | 0.0774 ± 0.03
GGAGACCUAUCUAUACAAGCCUACUACCUCA | 0.00108 ± 0.0076 | 0.00205 ± 0.0039
GGAGACCUUACUAUACAACGCUACUACCUCA | 0.00146 ± 0.0061 | 0.00566 ± 0.0038
GGAGACCUUACUUUACAACCUACUACCACA | 0.14 ± 0.018 | 0.00203 ± 0.005
GGAGACCUUACUAUAGAACCUACUAGCUCA | 0.00445 ± 0.0038 | 0.000717 ± 0.0058
GGAGACCUAUGUAUACAACCUAGAUGGAGA [g9:g19:cont:t1A] | 0.000119 ± 0.018 | 0.000696 ± 0.0082
GGAGACCUAUGAAUAGAACCUUCUACCUCA | 0.000297 ± 0.014 | < 0.0001
GGAGACCUUACUAUACAACCUACUAGGACA | 0.00167 ± 0.0055 | 0.00109 ± 0.0048
GGAGACGAAACUAUACAAGCUACUACCUCA | 0.242 ± 0.02 | 0.00338 ± 0.0017
GGAGACGAUACUAUACAACCUAUCUACCUCA | 0.17 ± 0.017 | 0.00473 ± 0.0019
GGAGACCUUACUAUACAAACUACUACCUCA | 0.204 ± 0.014 | 0.00215 ± 0.0025
GGAGAGGAUACUAUACAAGCUACUUCCUCA | 0.0737 ± 0.013 | 0.00375 ± 0.0015
GGAGACCUAUGAUUACGAACCUACUACCUCA | 0.000367 ± 0.0099 | 0.000881 ± 0.008
GGAGACCUAUCUAUAGAACCUACUACGUCA | 0.0269 ± 0.0089 | 0.000307 ± 0.0078
GGAGACCUUACUAUACAACCUACUCCCUCA | 0.0992 ± 0.015 | 0.00342 ± 0.0031
GGAGACCUAUGAUAUGUUCCUAGCUACCUCA | 0.000162 ± 0.015 | 0.000149 ± 0.016
GGAGACCUAUGAUUAGAACCUACUACGUCA | 0.000174 ± 0.015 | 0.00029 ± 0.0097
GGAGACCUUACUAUACAACCAACUACCUGA | 0.00286 ± 0.0032 | 0.00356 ± 0.004
GGAGACCUAUGAAUAAACCUACUACCUCA | 0.000469 ± 0.011 | 0.000523 ± 0.0094
GGAGACCUUACAAUACAACCUAGUACCUCA | 0.043 ± 0.013 | 0.00138 ± 0.0035
GGAGAGGAUACUAUACAACGUACUUCCUCA | 0.00271 ± 0.0043 | 0.00375 ± 0.0013
GGAGACCUAUGUAUACAACGUACUACGUCA | 0.00218 ± 0.0025 | 0.00138 ± 0.0036
GGAGACCAUACUAUACAAGCUACUAGCUCA | 0.0756 ± 0.022 | 0.00358 ± 0.0038
GGAGACCUAUGAUAAGAACCUUCUACCUCA | 0.000257 ± 0.012 | 0.00014 ± 0.017
GGAGACCUAUCUAUAGAACCUACUAGCUCA | 0.00202 ± 0.0054 | 0.00103 ± 0.0085
